Consider 23 targets from the supplement of paper PMC10849652.

Sequences of proteins named here, by UniProt entry; tags and fusion partners are left off. A change or cut given only in a name is not applied to a line headed by its entry.
UniProt Q8WU76: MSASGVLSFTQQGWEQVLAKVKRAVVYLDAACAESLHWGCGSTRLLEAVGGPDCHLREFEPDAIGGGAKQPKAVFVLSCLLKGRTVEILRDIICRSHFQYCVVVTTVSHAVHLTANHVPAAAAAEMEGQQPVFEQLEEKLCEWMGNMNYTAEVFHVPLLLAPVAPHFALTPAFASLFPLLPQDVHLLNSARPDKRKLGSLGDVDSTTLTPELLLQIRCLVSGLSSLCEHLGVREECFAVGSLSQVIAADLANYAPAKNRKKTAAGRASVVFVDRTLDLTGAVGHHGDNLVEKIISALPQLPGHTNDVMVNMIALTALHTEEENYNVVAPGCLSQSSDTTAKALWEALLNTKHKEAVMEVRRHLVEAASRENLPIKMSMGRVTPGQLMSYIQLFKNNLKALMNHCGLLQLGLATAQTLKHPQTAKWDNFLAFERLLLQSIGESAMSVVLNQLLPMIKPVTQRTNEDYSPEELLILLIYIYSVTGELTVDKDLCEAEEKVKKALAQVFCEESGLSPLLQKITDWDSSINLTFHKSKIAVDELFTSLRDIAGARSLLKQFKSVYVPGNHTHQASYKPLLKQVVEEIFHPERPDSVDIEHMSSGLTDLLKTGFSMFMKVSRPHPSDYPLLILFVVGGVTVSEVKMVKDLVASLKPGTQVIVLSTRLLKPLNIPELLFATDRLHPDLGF
UniProt Q8WTV0: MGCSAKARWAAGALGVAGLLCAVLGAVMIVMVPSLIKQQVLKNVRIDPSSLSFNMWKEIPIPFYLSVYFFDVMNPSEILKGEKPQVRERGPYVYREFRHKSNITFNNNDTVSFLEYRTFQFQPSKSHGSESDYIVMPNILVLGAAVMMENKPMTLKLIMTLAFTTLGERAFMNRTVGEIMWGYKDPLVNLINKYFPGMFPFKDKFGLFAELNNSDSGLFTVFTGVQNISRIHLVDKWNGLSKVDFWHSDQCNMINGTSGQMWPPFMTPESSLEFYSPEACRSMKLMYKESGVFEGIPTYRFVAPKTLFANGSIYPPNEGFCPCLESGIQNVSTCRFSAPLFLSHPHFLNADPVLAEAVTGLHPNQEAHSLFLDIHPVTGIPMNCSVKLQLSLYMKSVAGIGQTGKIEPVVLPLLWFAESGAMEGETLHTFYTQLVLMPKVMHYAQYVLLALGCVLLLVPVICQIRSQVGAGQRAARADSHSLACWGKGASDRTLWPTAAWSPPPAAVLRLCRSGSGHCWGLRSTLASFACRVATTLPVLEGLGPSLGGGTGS
UniProt Q9H446: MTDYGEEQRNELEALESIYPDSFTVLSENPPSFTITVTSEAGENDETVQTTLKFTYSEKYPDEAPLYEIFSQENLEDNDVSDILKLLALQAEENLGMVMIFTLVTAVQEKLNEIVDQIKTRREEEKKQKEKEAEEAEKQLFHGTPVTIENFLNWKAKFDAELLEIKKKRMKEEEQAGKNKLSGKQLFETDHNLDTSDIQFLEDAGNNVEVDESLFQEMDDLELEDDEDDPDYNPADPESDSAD
UniProt Q9Y6U3: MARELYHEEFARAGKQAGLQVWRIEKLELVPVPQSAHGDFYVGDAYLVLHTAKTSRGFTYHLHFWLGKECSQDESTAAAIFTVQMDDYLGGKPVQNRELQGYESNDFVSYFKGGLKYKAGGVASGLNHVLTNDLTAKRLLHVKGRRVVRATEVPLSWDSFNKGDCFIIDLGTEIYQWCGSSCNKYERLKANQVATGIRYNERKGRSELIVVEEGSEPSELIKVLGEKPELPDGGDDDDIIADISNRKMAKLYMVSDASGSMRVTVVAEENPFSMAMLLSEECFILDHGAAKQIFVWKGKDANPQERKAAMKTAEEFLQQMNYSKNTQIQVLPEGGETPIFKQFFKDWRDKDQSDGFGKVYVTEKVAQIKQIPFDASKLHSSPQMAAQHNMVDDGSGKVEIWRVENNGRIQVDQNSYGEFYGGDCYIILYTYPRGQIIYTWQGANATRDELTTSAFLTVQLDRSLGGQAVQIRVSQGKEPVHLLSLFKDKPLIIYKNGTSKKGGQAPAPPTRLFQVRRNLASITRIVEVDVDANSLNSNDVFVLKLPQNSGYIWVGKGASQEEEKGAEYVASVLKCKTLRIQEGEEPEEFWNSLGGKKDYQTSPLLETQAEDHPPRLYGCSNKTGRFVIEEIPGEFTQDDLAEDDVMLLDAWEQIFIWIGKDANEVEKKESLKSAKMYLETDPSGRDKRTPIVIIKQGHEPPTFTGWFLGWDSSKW
UniProt Q9BRK5: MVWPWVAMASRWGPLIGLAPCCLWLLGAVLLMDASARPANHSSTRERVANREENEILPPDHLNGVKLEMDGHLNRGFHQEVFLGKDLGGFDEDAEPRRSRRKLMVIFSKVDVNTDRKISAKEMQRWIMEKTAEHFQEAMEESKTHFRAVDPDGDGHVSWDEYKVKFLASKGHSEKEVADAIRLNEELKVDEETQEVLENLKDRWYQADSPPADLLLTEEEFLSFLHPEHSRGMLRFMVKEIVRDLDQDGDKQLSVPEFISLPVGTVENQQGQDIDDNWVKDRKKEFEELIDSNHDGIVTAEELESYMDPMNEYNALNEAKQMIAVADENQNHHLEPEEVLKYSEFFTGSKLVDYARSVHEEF
UniProt Q8N488: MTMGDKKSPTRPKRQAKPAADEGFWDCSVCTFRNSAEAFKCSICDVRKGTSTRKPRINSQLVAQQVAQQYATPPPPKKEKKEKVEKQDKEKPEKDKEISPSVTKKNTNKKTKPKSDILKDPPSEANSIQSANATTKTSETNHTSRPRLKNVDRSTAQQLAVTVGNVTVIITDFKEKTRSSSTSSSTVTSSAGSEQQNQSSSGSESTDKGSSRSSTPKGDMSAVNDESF
UniProt O75880: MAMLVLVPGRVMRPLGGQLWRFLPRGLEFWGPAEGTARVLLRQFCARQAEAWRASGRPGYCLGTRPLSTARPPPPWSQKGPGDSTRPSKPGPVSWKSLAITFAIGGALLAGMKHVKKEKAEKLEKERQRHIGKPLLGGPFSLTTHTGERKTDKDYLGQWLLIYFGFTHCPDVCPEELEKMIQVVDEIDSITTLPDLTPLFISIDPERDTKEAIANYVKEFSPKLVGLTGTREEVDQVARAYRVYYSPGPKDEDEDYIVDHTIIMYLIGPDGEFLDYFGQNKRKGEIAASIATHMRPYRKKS
UniProt Q96KG9: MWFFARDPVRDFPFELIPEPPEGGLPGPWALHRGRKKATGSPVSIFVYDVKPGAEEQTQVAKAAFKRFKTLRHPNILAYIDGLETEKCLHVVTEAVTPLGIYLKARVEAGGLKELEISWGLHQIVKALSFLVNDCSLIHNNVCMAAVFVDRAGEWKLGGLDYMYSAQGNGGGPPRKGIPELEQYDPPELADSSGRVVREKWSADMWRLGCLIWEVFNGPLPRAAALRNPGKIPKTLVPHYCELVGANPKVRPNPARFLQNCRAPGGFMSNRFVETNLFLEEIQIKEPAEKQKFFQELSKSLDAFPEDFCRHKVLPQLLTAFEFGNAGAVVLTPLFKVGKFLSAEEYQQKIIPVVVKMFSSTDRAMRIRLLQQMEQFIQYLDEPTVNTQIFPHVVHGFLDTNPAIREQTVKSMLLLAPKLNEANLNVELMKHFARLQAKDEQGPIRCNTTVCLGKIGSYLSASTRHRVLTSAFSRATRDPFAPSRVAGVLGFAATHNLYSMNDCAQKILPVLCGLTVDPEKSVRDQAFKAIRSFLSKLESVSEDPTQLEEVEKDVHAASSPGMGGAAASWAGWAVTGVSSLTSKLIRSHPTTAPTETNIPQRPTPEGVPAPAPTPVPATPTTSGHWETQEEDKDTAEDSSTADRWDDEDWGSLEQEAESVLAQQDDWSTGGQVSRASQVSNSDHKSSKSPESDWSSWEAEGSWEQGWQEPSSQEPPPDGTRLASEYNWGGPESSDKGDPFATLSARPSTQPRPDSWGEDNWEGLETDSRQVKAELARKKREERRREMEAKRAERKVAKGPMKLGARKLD
UniProt P31040: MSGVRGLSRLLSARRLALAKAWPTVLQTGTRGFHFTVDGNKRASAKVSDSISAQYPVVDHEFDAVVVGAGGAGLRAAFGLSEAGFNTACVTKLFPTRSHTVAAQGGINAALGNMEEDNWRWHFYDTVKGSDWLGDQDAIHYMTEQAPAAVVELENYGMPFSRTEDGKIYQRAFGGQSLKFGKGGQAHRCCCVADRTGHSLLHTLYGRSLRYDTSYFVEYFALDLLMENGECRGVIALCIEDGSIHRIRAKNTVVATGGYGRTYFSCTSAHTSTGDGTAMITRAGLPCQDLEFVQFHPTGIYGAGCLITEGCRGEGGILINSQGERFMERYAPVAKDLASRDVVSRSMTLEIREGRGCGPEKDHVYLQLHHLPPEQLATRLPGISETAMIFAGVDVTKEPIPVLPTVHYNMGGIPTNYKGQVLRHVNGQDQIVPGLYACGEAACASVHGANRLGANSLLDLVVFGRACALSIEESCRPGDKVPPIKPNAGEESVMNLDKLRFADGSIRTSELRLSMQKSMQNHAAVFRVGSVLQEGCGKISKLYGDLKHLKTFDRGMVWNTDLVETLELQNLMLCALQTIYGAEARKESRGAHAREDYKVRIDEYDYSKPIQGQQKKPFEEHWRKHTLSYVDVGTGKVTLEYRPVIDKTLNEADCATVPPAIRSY
UniProt Q6PCB5: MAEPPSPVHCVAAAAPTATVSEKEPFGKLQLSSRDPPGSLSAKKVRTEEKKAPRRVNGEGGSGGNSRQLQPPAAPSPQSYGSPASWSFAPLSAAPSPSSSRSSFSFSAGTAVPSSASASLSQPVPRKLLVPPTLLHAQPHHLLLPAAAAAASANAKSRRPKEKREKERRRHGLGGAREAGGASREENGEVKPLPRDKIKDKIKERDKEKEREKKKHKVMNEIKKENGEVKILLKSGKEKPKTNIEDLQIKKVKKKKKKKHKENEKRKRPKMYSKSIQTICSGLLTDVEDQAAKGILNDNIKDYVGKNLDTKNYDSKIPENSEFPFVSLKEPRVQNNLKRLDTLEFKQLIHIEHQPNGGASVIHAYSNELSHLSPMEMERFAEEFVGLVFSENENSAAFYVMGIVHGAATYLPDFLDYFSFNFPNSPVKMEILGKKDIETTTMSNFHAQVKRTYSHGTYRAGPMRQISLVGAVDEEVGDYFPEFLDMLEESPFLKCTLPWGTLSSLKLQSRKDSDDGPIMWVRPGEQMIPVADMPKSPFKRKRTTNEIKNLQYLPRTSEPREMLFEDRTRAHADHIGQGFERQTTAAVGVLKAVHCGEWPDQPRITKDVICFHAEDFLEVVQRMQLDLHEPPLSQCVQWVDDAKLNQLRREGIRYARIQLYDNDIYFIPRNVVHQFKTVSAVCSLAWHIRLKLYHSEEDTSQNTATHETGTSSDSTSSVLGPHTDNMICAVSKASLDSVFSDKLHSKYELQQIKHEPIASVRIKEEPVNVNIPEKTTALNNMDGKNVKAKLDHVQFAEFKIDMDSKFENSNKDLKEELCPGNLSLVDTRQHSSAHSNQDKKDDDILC
UniProt Q9NRP4: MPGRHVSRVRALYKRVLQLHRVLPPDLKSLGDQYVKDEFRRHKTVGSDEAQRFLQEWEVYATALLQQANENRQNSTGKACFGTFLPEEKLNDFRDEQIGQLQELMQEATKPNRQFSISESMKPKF
UniProt P25815: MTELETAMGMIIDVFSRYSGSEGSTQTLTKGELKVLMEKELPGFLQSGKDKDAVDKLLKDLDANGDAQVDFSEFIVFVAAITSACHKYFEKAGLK
UniProt P22307: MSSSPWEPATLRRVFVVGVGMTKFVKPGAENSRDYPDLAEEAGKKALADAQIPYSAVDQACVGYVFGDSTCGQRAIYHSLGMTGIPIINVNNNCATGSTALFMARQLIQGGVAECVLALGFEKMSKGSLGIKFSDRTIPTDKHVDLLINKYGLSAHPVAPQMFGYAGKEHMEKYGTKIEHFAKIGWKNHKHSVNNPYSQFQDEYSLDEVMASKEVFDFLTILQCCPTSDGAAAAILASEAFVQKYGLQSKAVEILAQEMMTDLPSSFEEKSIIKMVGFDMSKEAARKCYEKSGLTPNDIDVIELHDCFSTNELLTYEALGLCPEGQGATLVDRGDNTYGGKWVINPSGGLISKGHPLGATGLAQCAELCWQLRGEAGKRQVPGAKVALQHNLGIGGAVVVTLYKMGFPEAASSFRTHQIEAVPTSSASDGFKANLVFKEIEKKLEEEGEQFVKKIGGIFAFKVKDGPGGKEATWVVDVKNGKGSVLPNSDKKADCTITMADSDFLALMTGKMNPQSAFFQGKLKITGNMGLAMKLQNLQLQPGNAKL
UniProt Q969E2: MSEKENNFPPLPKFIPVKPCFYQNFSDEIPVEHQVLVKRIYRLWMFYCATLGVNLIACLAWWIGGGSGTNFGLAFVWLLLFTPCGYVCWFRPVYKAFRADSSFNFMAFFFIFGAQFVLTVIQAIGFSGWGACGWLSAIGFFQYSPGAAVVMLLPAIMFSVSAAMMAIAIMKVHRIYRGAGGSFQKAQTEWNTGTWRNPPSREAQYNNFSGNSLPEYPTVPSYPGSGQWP

This is one part of the list.

Compound in this experiment: Cn1cc(-c2ccc3c(c2)CCN3C(=O)Cc2cccc(C(F)(F)F)c2)c2c(N)ncnc21
The experiment is described as follows: log2 fold change, soluble protein after heating vs DMSO (PISA); higher = thermal stabilisation; K562 cells, 10 uM, 30 min; active = over 0.2 and 3.5 SD of the protein, either way, in both replicates (recomputed). The essentials:
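Aliquots of K562 cells (2×10^6 cells/mL) treated with 10 μM compound for 30 min were heated for 3 min over 48°C-58°C. After pooling and extraction in PBS with 0.5% NP-40 at 4°C, soluble protein from a 21,000xg, 90 min spin was quantified by TMTpro 16plex LC-MS/MS with channel sums equalised. Thermal stability is expressed against control samples, from duplicates, as a log2 fold change.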
With SCFD2 (UniProt Q8WU76), the log2 fold change was inactive: -0.053.

Turning to SCARB1 isoform 2 (UniProt Q8WTV0), the log2 fold change is inactive: 0.034.

With RWDD1 (UniProt Q9H446), the log2 fold change was inactive: 0.048.

SCIN (UniProt Q9Y6U3): the log2 fold change was inactive: 0.052.

Regarding SDF4 (UniProt Q9BRK5), the log2 fold change was inactive: -0.019.

RYBP (UniProt Q8N488): the log2 fold change is inactive: -0.039.

SCO1 (UniProt O75880): the log2 fold change was inactive: -0.006.

With SACS (UniProt Q9NZJ4), the log2 fold change was inactive: -0.069.

As to RTRAF (UniProt Q9Y224), the log2 fold change was inactive: -0.087.

As for SCYL1 (UniProt Q96KG9), the log2 fold change is inactive: 0.024.

As for S100A6 (UniProt P06703), the log2 fold change is inactive: 0.039.

As to SDHA (UniProt P31040), the log2 fold change was inactive: -0.001.

Regarding RSBN1L (UniProt Q6PCB5), the log2 fold change is inactive: -0.376.

For RUVBL1 (UniProt Q9Y265), the log2 fold change is inactive: -0.003.

Regarding SDHAF3 (UniProt Q9NRP4), the log2 fold change is inactive: -0.048.

As for SBNO1 (UniProt A3KN83), the log2 fold change was inactive: 0.038.

Turning to SCLY (UniProt Q96I15), the log2 fold change was inactive: 0.043.

In the case of S100P (UniProt P25815), the log2 fold change is inactive: 0.182.

Take SCP2 (UniProt P22307): the log2 fold change is inactive: 0.061.

For the target SCAMP4 (UniProt Q969E2), the log2 fold change was inactive: 0.085.

As for SCARB2 (UniProt Q14108), the log2 fold change was inactive: 0.03.

For the target SCAP (UniProt Q12770), the log2 fold change is inactive: 0.011.

Turning to SEC24D isoform 2 (UniProt O94855), the log2 fold change was inactive: 0.054.
